{"source": "PubChem BioAssay AID651640", "about": "(Broad Institute, 2012)", "note": "The whole screen tested about 350,000 compounds, of which about 6,000 (1.7%) were called active. The inconclusive results got no clear call from the source; some entries with a clear call stand among them for comparison. Rule as the data show it: active = CPE inhibition above about 20% (passing the limit was not always enough); inconclusive = no clear call, values can overlap the other calls; tested in BHK-21 cells. A structure can be active in one record and inactive in another."}
{"assay": "protection of cells from dengue 2 killing – plate reader, single concentration, primary screen (AID 651640);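 also: 0% = median of neutral control wells and 100% = median of positive control wells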", "settings": "DENV2-infected cells, cytopathic effect rescue, at 9.99 µM, hits give high values"}
{"smiles": "O=S(=O)(c1ccc(=S)[nH]c1)N1CCN(Cc2ccccc2)CC1", "CPE inhibition": "active: 24.8%"}
{"smiles": "Nc1nc(N)nc(-c2ccc(Oc3ccccc3)cc2)n1", "CPE inhibition": "inactive: -7.55%"}
{"smiles": "Cc1ccccc1N(CC(=O)NCc1ccncc1)S(C)(=O)=O", "CPE inhibition": "inconclusive: 54.7%"}
{"smiles": "COc1ccc(CN(C)C[C@@H]2OCCCC[C@H](C)Oc3ccc(NS(=O)(=O)c4ccccc4)cc3C(=O)N([C@H](C)CO)C[C@H]2C)cc1", "CPE inhibition": "active: 31.9%"}
{"smiles": "COc1ccc(-c2nc(S(=O)(=O)c3ccccc3)c(NCCCN3CCOCC3)o2)cc1", "CPE inhibition": "inconclusive: 57.8%"}
{"smiles": "Cc1noc(C)c1S(=O)(=O)N(C)C[C@H]1OCCCC[C@@H](C)Oc2ccc(NC(=O)Nc3ccc4c(c3)OCO4)cc2C(=O)N([C@@H](C)CO)C[C@H]1C", "CPE inhibition": "active: 86.5%"}
{"smiles": "CC(C)NC(=O)N1CC2(C1)[C@H](c1ccccc1)[C@@H](CO)N2C(=O)c1ccccn1", "CPE inhibition": "active: 32.7%"}
{"smiles": "O=C(C[C@@H]1CC[C@H]2[C@@H](COC[C@H](O)CN2Cc2cccc(Cl)c2)O1)Nc1nccs1", "CPE inhibition": "inconclusive: 25.3%"}
{"smiles": "Cc1c(Cl)c([N+](=O)[O-])nn1CC(=O)NC(C)c1ccccc1", "note": "(stereo unspecified)", "CPE inhibition": "inconclusive: 30.1%"}
{"smiles": "COc1ccc(-c2c(C3=CCCCC3)oc3ccc(-c4ccc5c(c4)OCO5)cc23)cn1", "CPE inhibition": "inconclusive: 40.3%"}
{"smiles": "Cc1noc(C)c1NC(=O)N(C)C[C@@H]1Oc2c(NC(=O)c3ccc(-c4nccs4)cc3)cccc2C(=O)N([C@H](C)CO)C[C@@H]1C", "CPE inhibition": "active: 33.2%"}
{"smiles": "Cc1ccc(S(=O)(=O)Nc2ccc3c(c2)C(=O)N([C@@H](C)CO)C[C@@H](C)[C@@H](CN(C)S(=O)(=O)c2cccs2)OCCCC[C@@H](C)O3)cc1", "CPE inhibition": "active: 39.6%"}
{"smiles": "COCCN(C(=O)COC(=O)CCc1nc2ccccc2s1)c1c(N)n(Cc2ccccc2)c(=O)[nH]c1=O", "CPE inhibition": "inconclusive: 28.3%"}
{"smiles": "C[C@@H]1CN([C@H](C)CO)C(=O)c2cc(NC(=O)C3CC3)ccc2O[C@H]1CN(C)Cc1ccccc1", "CPE inhibition": "inactive: 1.78%"}
{"smiles": "COc1ccc2c3c([nH]c2c1)[C@@H](CO)N(Cc1ccccn1)CC31CCN(C(C)=O)CC1", "CPE inhibition": "inconclusive: 33.3%"}
{"smiles": "NC(=O)c1ncn([C@@H]2O[C@H](CNCc3ccc(OCC(=O)Nc4nccs4)cc3)[C@@H](O)[C@H]2O)n1", "CPE inhibition": "inconclusive: 63.5%"}
{"smiles": "COc1ccc(NC(=O)N(C)C[C@@H]2Oc3ccc(N(C)C)cc3CC(=O)N([C@H](C)CO)C[C@@H]2C)cc1", "CPE inhibition": "inactive: 5.66%"}
{"smiles": "COc1ccc(C(=O)Nc2ccc3[nH]ccc3c2)cc1", "CPE inhibition": "inactive: 12.4%"}
{"smiles": "Cc1ccc(NS(=O)(=O)c2ccc(Br)cc2)nc1", "CPE inhibition": "inconclusive: 22.5%"}
{"smiles": "COc1ccccc1NC(=O)c1c(N=Cc2cccc([N+](=O)[O-])c2)cnn1C", "CPE inhibition": "inconclusive: 21.7%"}
{"smiles": "C/C=C/c1ccc(C2[C@H]3CNC[C@@H]2N3Cc2nccs2)cc1", "note": "(stereo partly specified)", "CPE inhibition": "active: 39.1%"}
{"smiles": "CCCCC(=O)NC(c1ccc(OC)cc1)c1ccc2cccnc2c1O", "note": "(stereo unspecified)", "CPE inhibition": "inconclusive: 22.1%"}
{"smiles": "CO[C@H](CN(C)Cc1cc(F)ccc1F)[C@@H](C)CN([C@@H](C)CO)S(=O)(=O)c1ccc(C)cc1", "CPE inhibition": "inconclusive: 20.2%"}
{"smiles": "Cc1ccc2sc(NC(=O)c3cccc(N4C(=O)CCC4=O)c3)nc2c1C", "CPE inhibition": "inconclusive: 24.2%"}
{"smiles": "O=C(NCc1ccccc1)C1CCCN(S(=O)(=O)c2ccc(-n3cnnn3)cc2)C1", "note": "(stereo unspecified)", "CPE inhibition": "inconclusive: 25.9%"}
{"smiles": "COc1ccc(-c2ccc3c(c2)O[C@@H](CN(C)Cc2cccnc2)[C@H](C)CN([C@@H](C)CO)S3(=O)=O)cc1", "CPE inhibition": "inactive: -4.61%"}
{"smiles": "Cc1ccc(NS(=O)(=O)c2ccc(C(=O)NCCCN3CCCC3=O)cc2)cc1", "CPE inhibition": "active: 103%"}
{"smiles": "Cc1ccc(O)c([C@H](CCN(C(C)C)C(C)C)c2ccccc2)c1", "CPE inhibition": "inconclusive: 54.2%"}
{"smiles": "O=C(CCC(=O)N/N=C/c1ccco1)N/N=C/c1ccco1", "CPE inhibition": "inconclusive: 20.6%"}
{"smiles": "Cc1noc(C)c1NC(=O)N(C)C[C@H]1Oc2ccc(NC(=O)Cc3ccccc3)cc2C(=O)N([C@@H](C)CO)C[C@H]1C", "CPE inhibition": "inactive: -3.9%"}
{"smiles": "O=C(Nc1ccc(Cl)c(Cl)c1)N[C@H]1CC[C@H](CCn2cc(C3CCCC3)nn2)O[C@@H]1CO", "CPE inhibition": "inconclusive: 56%"}
{"smiles": "Cc1ccc(C)c(S(=O)(=O)N2CCCC2CNC(=O)C(=O)NC2CCCCCC2)c1", "note": "(stereo unspecified)", "CPE inhibition": "inconclusive: 20.3%"}
{"smiles": "C/C=C(\\C)C(=O)Nc1cccc(C2=NOC3(C2)C[C@@H](C(N)=O)N(C(=O)/C(C)=C/C)C3)c1", "note": "(stereo partly specified)", "CPE inhibition": "active: 30.2%"}
{"smiles": "COCC#Cc1ccc([C@H]2[C@@H](CO)N3CCCCN(C(=O)NC4CCCC4)C[C@@H]23)cc1", "CPE inhibition": "inconclusive: 38.9%"}
{"smiles": "O=C(NCc1ccc(F)cc1)c1ccc(N2CCc3ccccc32)c([N+](=O)[O-])c1", "CPE inhibition": "inconclusive: 42.2%"}
{"smiles": "CN(C)C(=O)C[C@H]1CC[C@H](NS(=O)(=O)c2ccccc2)[C@@H](CO)O1", "CPE inhibition": "inactive: 5.01%"}
{"smiles": "COc1ccc(NC(=O)Nc2ccc3c(c2)CC(=O)N([C@H](C)CO)C[C@@H](C)[C@H](CN(C)S(=O)(=O)c2cccs2)O3)cc1", "CPE inhibition": "inconclusive: 20.8%"}
{"smiles": "CN(C)/N=C/c1cc(Cl)cc([N+](=O)[O-])c1O", "CPE inhibition": "inconclusive: 27.8%"}
{"smiles": "O=C(CSc1nnc(-c2ccncc2)o1)Nc1ccc(F)c(F)c1", "CPE inhibition": "inconclusive: 24.5%"}
{"smiles": "O=C(NC(=S)Nc1cccnc1Cl)c1ccc(F)cc1", "CPE inhibition": "inconclusive: 20.9%"}
{"smiles": "Cc1ccc(NC(=O)c2ccco2)c([N+](=O)[O-])c1", "CPE inhibition": "inactive: 4.97%"}
{"smiles": "COc1cccc(CNC(=O)CCc2ccc(OC)c(OC)c2)c1", "CPE inhibition": "inconclusive: 43.5%"}
{"smiles": "Cc1noc(C)c1NC(=O)N(C)C[C@@H]1Oc2ccc(NC(=O)Cn3cnnn3)cc2C(=O)N([C@H](C)CO)C[C@H]1C", "CPE inhibition": "inconclusive: 26.1%"}
{"smiles": "Cc1ccc(S(=O)(=O)Nc2ccc3c(c2)C(=O)N([C@H](C)CO)C[C@H](C)[C@@H](CN(C)S(=O)(=O)c2cccs2)OCCCC[C@H](C)O3)cc1", "CPE inhibition": "inactive: 6.51%"}
{"smiles": "Cc1noc(C)c1S(=O)(=O)N(C)C[C@@H]1OCCCC[C@@H](C)Oc2ccc(NC(=O)NC(C)C)cc2C(=O)N([C@H](C)CO)C[C@H]1C", "CPE inhibition": "inactive: -7.7%"}
{"smiles": "Cc1noc(C)c1NC(=O)Nc1cccc2c1O[C@H](CN(C)S(C)(=O)=O)[C@@H](C)CN([C@H](C)CO)C2=O", "CPE inhibition": "inconclusive: 27.8%"}
{"smiles": "C[C@@H]1CN([C@@H](C)CO)C(=O)c2cc(NC(=O)Nc3ccccc3)ccc2O[C@@H](C)CCCCO[C@H]1CN(C)Cc1ccc(C(=O)O)cc1", "CPE inhibition": "inactive: 3.27%"}
{"smiles": "CC(Sc1nnc(-c2ccco2)o1)C(=O)NCCC1=CCCCC1", "note": "(stereo unspecified)", "CPE inhibition": "inconclusive: 31.4%"}
{"smiles": "CN1[C@@H]2Cn3c(ccc(/C=C/c4ccccc4)c3=O)[C@H]1[C@@H](C(=O)NC1CCCCC1)[C@@H]2CO", "CPE inhibition": "inconclusive: 20.4%"}
{"smiles": "Cc1ccc(S(=O)(=O)N(C)C[C@@H]2Oc3cc(C4=CCCC4)ccc3S(=O)(=O)N([C@H](C)CO)C[C@H]2C)cc1", "CPE inhibition": "active: 79.1%"}
{"smiles": "CC(=O)N1CC2(C1)[C@H](c1ccc(-c3ccc(C#N)cc3)cc1)[C@@H](CO)N2C(=O)C1CC1", "CPE inhibition": "active: 83.9%"}
{"smiles": "COc1ccc(OC)c(S(=O)(=O)N/N=C\\c2c[nH]c3ccccc23)c1", "CPE inhibition": "active: 37.5%"}
{"smiles": "C[C@@]12C(=O)N(CCc3c[nH]c4ccccc34)CC(=O)N1[C@H]1c3ccccc3OC[C@@H]1[C@@H]2c1ccccc1", "CPE inhibition": "active: 53.6%"}
{"smiles": "O=C(NCc1ccc(F)cc1)c1cc(C2CCCN(S(=O)(=O)c3ccccc3)C2)on1", "note": "(stereo unspecified)", "CPE inhibition": "inconclusive: 28.6%"}
{"smiles": "O=C(CCN1CCCCC1)N[C@@H]1CC[C@H](CCNS(=O)(=O)c2ccc(F)cc2)O[C@@H]1CO", "CPE inhibition": "inactive: 0.732%"}
{"smiles": "CC1CCCCC1NC(=O)COC(=O)c1cc(=O)[nH]c2ccccc12", "note": "(stereo unspecified)", "CPE inhibition": "inactive: 10.1%"}
{"smiles": "CCN1[C@@H]2Cn3c(ccc(-c4ccc(F)cc4)c3=O)[C@H]1[C@@H](C(=O)Nc1ccccc1)[C@@H]2CO", "CPE inhibition": "inactive: 1.29%"}
{"smiles": "Cc1ccc(SCC(=O)NNC(=O)c2cncc(Br)c2)cc1", "CPE inhibition": "active: 33.6%"}
{"smiles": "O=C(C1CCCC1)N1CC2(C1)[C@H](c1ccccc1)[C@H](CO)N2CC1CC1", "CPE inhibition": "inactive: 2.09%"}
{"smiles": "CC(=O)Nc1ccc(S(=O)(=O)N(C)CC(=O)NC2CCCCCCC2)cc1", "CPE inhibition": "inconclusive: 27.2%"}
{"smiles": "CO[C@H]1CN(C)C(=O)c2ccc(NS(=O)(=O)c3cccc(Cl)c3)cc2OC[C@H](C)NC[C@@H]1C", "CPE inhibition": "inconclusive: 49.1%"}
{"smiles": "COc1ccc(OC)c(NC(=O)CSc2nnc(Cn3c(=O)sc4ccccc43)n2C)c1", "CPE inhibition": "inconclusive: 25.3%"}
{"smiles": "Cc1cccc(OCC(=O)Nc2ccc3c(c2)nc(CCN2CCC(C)CC2)n3C)c1", "CPE inhibition": "inconclusive: 21.1%"}
{"smiles": "Cc1noc(C)c1NC(=O)N(C)C[C@@H]1Oc2ccc(NC(=O)Nc3cccc4ccccc34)cc2C(=O)N([C@H](C)CO)C[C@H]1C", "CPE inhibition": "inactive: 7.14%"}
{"smiles": "Cc1ccc(O)c(CNc2cccc3cccnc23)c1", "CPE inhibition": "inactive: 0.065%"}
{"smiles": "CCCCNc1c(-c2ccc(OC)c(SC3CCCCC3)c2)nc2ccc(C)cn12", "CPE inhibition": "inconclusive: 32.9%"}
{"smiles": "CCOC(=O)C(=N/O)/C(C)=N/NC(=O)C(=O)Nc1ccc(Cl)cc1", "CPE inhibition": "inconclusive: 24.3%"}
{"smiles": "C[C@H](CO)N1C[C@H](C)[C@H](CN(C)Cc2ccc(-c3ccccc3)cc2)Oc2ccc(NC(=O)c3ccncc3)cc2CC1=O", "CPE inhibition": "inactive: 0.602%"}
{"smiles": "CC=Cc1ccc2n(c1=O)C[C@H]1[C@H](CO)[C@@H](C(=O)N[C@@H](C)c3ccccc3)N(C)[C@@H]21", "note": "(mixture of isomers)", "CPE inhibition": "inconclusive: 41.5%"}
{"smiles": "COc1ccc(CCN=C(C)C2=C(O)C(c3ccccc3)OC2=O)cc1OC", "note": "(stereo unspecified)", "CPE inhibition": "inactive: -2.56%"}
{"smiles": "C[C@H](NC(=O)c1ccccc1)C(=O)Nc1nc(-c2ccccn2)cs1", "CPE inhibition": "inactive: 0.389%"}
